{
  "sequences": {"note": "By UniProt entry, the sequences of proteins in these tests, tags left out.", "UniProt Q0JBA9, entry or part of it": "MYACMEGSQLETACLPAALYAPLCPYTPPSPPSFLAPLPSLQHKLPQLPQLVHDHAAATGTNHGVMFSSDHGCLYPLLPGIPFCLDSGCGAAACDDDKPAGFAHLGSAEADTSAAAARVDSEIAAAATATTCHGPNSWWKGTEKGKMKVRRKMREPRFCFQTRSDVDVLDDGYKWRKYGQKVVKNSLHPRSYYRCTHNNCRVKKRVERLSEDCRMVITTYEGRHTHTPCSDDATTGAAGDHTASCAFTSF"},
  "source": "paper PMC7819943",
  "about": "“Rice protein-binding microarrays: a tool to detect cis-acting elements near promoter regions in rice”",
  "note": "The list shows a part of the results.",
  "data": [
    {"target": "OsWRKY34 (Oryza sativa, UniProt Q0JBA9 1-250)", "assay": "protein-binding microarray (RPBM); PBS, 2% BSA, 51.3 ng/ul salmon testes DNA, 50 uM zinc acetate, 200 nM TF, 25 C, 1 h; high values mean tight binding", "conditions": "protein: recombinant; tags: N-terminal polyhistidine and DsRed monomer fusion (pET32a); label: CyDye5-dUTP incorporated in the synthesized complementary strand; 3' TTTTT single-stranded linker to array surface; dsDNA, one strand shown", "procedure,_shortened": "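Using Ni–NTA, transcription factors fused N-terminally to polyhistidine and DsRed were purified after expression in E. coli BL21-CodonPlus. These were incubated at 200 nM with a blocked, double-stranded custom Agilent array for 1 h at 25 °C in a buffer containing 50 µM zinc acetate, and the array was washed. The binding signal is per-feature fluorescence intensity (arbitrary units) on an Axon 4000B scanner.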", "values": [
      {"sequence": "CTCCGGCCTACATCTTCCTGCATTCATCACAACACCATCCCGGAGTCACCTAGTGCAG", "binding signal": "13000 fluorescence intensity (a.u.)"},
      {"sequence": "GCTTTTTCCATCGTGATTCCTTCACCGTAACGGGATCATCCGGAGTCACCTAGTGCAG", "binding signal": "9680 fluorescence intensity (a.u.)"},
      {"sequence": "AAAATTAGGCGCATTCATTCTTGACCTTACGTACCGAGATCGGAGTCACCTAGTGCAG", "binding signal": "9210 fluorescence intensity (a.u.)"},
      {"sequence": "TTGCCGCATCACCCGTCGCCACCATCACCGCCGTCGCGTCCGGAGTCACCTAGTGCAG", "binding signal": "9390 fluorescence intensity (a.u.)"},
      {"sequence": "GAGTGAACATCGTCGTCTGCATCTACTCGATCGCGCAAGCCGGAGTCACCTAGTGCAG", "binding signal": "8410 fluorescence intensity (a.u.)"},
      {"sequence": "ACTTAATACTAAGCATTCCTGTATTTTTCCTACCAATCATCGGAGTCACCTAGTGCAG", "binding signal": "9010 fluorescence intensity (a.u.)"},
      {"sequence": "ATTATTTTCCTCTCATTTGATTCATTGTTAAATATACTACCGGAGTCACCTAGTGCAG", "binding signal": "8330 fluorescence intensity (a.u.)"},
      {"sequence": "GAGAATTCGATGTTCCATCACTCTTAAGTTTAGGTTTTTCCGGAGTCACCTAGTGCAG", "binding signal": "8510 fluorescence intensity (a.u.)"},
      {"sequence": "CGCCTCGGCCTCGCTCGCTTTCCCCTACTTCCAGCGATTTCGGAGTCACCTAGTGCAG", "binding signal": "9380 fluorescence intensity (a.u.)"},
      {"sequence": "CCACTGTTCATCTTCAACCTCCAGCCATTCTTGTGTGTGACGGAGTCACCTAGTGCAG", "binding signal": "8320 fluorescence intensity (a.u.)"},
      {"sequence": "TTAAGTATGCTTTGCTGCTGCTGCTCTTTCTTCTCTCTGCCGGAGTCACCTAGTGCAG", "binding signal": "9940 fluorescence intensity (a.u.)"},
      {"sequence": "TATATCCCTTTCACCCGCGCAGTCTCCATCGCCGCCGTTTCGGAGTCACCTAGTGCAG", "binding signal": "11100 fluorescence intensity (a.u.)"},
      {"sequence": "TCACCGGTCTCATCCCCGTCATATGCATCCTTATCTCCAACGGAGTCACCTAGTGCAG", "binding signal": "10500 fluorescence intensity (a.u.)"},
      {"sequence": "TATATGCAATTTTCGTGTTATAACTATCCTGCTCTCGATCCGGAGTCACCTAGTGCAG", "binding signal": "8840 fluorescence intensity (a.u.)"},
      {"sequence": "TTCGTGTCTAACATTTGACTGTCTGTCTTATTTATTTTTTCGGAGTCACCTAGTGCAG", "binding signal": "8640 fluorescence intensity (a.u.)"},
      {"sequence": "CCTTCTTGCTGTGCACTCCCTCCTCAAAAAGAATGCAATTCGGAGTCACCTAGTGCAG", "binding signal": "9810 fluorescence intensity (a.u.)"},
      {"sequence": "TCATATTTCATGTCCATGGTAATTTTCATTATTTATTTTACGGAGTCACCTAGTGCAG", "binding signal": "8470 fluorescence intensity (a.u.)"},
      {"sequence": "TGCCAAGATCTTTCTGTGTTGAGGTATATGTCCATTTTGTCGGAGTCACCTAGTGCAG", "binding signal": "12000 fluorescence intensity (a.u.)"},
      {"sequence": "GCCGCTCGCCTGCAGCCCAAACATCTCCGATCTCCGGCGACGGAGTCACCTAGTGCAG", "binding signal": "8840 fluorescence intensity (a.u.)"},
      {"sequence": "TGTTTTTTGATCGATTCAATTCCTCGCGTCGCGCGACATGCGGAGTCACCTAGTGCAG", "binding signal": "11300 fluorescence intensity (a.u.)"},
      {"sequence": "AGTATTCCACCACGCGCTGCCCTCCGGTCGTTGTCCCATCCGGAGTCACCTAGTGCAG", "binding signal": "8940 fluorescence intensity (a.u.)"},
      {"sequence": "TCACCAACTCTTCTTATAATATATATATTTTGGTAACCCTCGGAGTCACCTAGTGCAG", "binding signal": "10000 fluorescence intensity (a.u.)"},
      {"sequence": "TGTTTATCTATTTTGTGTTGGTATTATTATTTCTTGTATACGGAGTCACCTAGTGCAG", "binding signal": "8850 fluorescence intensity (a.u.)"},
      {"sequence": "TATCAGTTCATACTCTGCTCCGCCATAAACATTGCCGATTCGGAGTCACCTAGTGCAG", "binding signal": "9790 fluorescence intensity (a.u.)"},
      {"sequence": "TTTCTGATTTTGTTTTGCTATTGTTTTGTTTGTCTTGTTTCGGAGTCACCTAGTGCAG", "binding signal": "12600 fluorescence intensity (a.u.)"},
      {"sequence": "CACTCTTTTTTTTTCAGCCGTTCGATCGAATCCTCATCAGCGGAGTCACCTAGTGCAG", "binding signal": "8510 fluorescence intensity (a.u.)"},
      {"sequence": "CCCCGTGGCCCGTGCGGCCGTGCCCCGCTCGCGCGCGTCTCGGAGTCACCTAGTGCAG", "binding signal": "8950 fluorescence intensity (a.u.)"},
      {"sequence": "TTGTGCCGCACTAGTGGATATGTTTTCGGTAGGAATTTTACGGAGTCACCTAGTGCAG", "binding signal": "8960 fluorescence intensity (a.u.)"},
      {"sequence": "AGACGAATGGTCAAACACGTATTAAAAAGTCAACGGTGTCCGGAGTCACCTAGTGCAG", "binding signal": "19700 fluorescence intensity (a.u.)"},
      {"sequence": "GTGGGAGTAGTTGAGGTCAGGAATAAAGCCCTGTTCCGGCCGGAGTCACCTAGTGCAG", "binding signal": "8890 fluorescence intensity (a.u.)"},
      {"sequence": "TTGTGTGAAGTGTATTGGTTATTTTAGCTTCATAGCTTGTCGGAGTCACCTAGTGCAG", "binding signal": "9050 fluorescence intensity (a.u.)"},
      {"sequence": "CTTTCACCCTAAGATCTTTCTGCCTGTCCATGTCCAACCACGGAGTCACCTAGTGCAG", "binding signal": "10800 fluorescence intensity (a.u.)"},
      {"sequence": "TCCGTCTGTCTATAGCTACTATTAAAGGAGGGGAGGCTCTCGGAGTCACCTAGTGCAG", "binding signal": "8130 fluorescence intensity (a.u.)"},
      {"sequence": "GCCACCATAGCCGTCGCCGTCTCGTACGCCCATCCCACCCCGGAGTCACCTAGTGCAG", "binding signal": "10200 fluorescence intensity (a.u.)"},
      {"sequence": "GATTTAGTTTTAGTTTTTGTTTTTTTCCCACTTGGTTCTTCGGAGTCACCTAGTGCAG", "binding signal": "9450 fluorescence intensity (a.u.)"},
      {"sequence": "AAATCTATATTATCGTCTGTACTTACTGTAATTTAAGCCACGGAGTCACCTAGTGCAG", "binding signal": "9980 fluorescence intensity (a.u.)"},
      {"sequence": "TCTCCTATAAAAGGCACTCCATCAATTGATCCTTGACATACGGAGTCACCTAGTGCAG", "binding signal": "8410 fluorescence intensity (a.u.)"},
      {"sequence": "TTCACCGCTGCCACCACACCTCTCCTCTCCTCTCCTCTCCCGGAGTCACCTAGTGCAG", "binding signal": "8380 fluorescence intensity (a.u.)"},
      {"sequence": "CAACATAATAGGCCTCTGACTCCCTGACTCCTTTGGTCGGCGGAGTCACCTAGTGCAG", "binding signal": "8060 fluorescence intensity (a.u.)"},
      {"sequence": "AGATATTTTTTTTGACAAAATTCAAACTCTAGCTGTGTTTCGGAGTCACCTAGTGCAG", "binding signal": "8320 fluorescence intensity (a.u.)"},
      {"sequence": "ACAGCGCCGCCGCAATTCGCTCGCCGCCGCCGCCGCCGCCCGGAGTCACCTAGTGCAG", "binding signal": "9220 fluorescence intensity (a.u.)"},
      {"sequence": "ACTTTACTCTAGTTATTTTTTTTAGCCTATATTTAATACTCGGAGTCACCTAGTGCAG", "binding signal": "8470 fluorescence intensity (a.u.)"}
    ]}
  ]
}
